Values quoted from earlier work, collected in patent US20200392107A1, “CYCLIC AMINE DERIVATIVE AND MEDICAL USE THEREOF” (Toray Industries, Inc., priority 2018, published 2020).
At least one structure is not confirmed: it was looked up by name or label, or the drawing left a doubt.

Legend:
[1] = tested on: mouse alopecia areata model; details: literature (Nature Medicine, 2014); cited from earlier work
[2] = tested on: patients with alopecia areata; details: literature (JCI Insight, 2016); cited from earlier work

SMILES: N#CC[C@H](C1CCCC1)n1cc(-c2ncnc3[nH]ccc23)cn1 [ruxolitinib]
- effect on hair loss symptoms [1]: suppressive effect on hair loss symptoms has been observed
- patients in the treatment group with a hair growth effect [2]: 75%
